Screen size: about 31,000 sequences; about 1,400 (4.5%) were called active.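 The calls were made as follows: active = median seed-adjusted z-score above 1 or below -1; inactive = the rest.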 The list shows a part of the results.
Experiment: Novel Modifiers of Survival Motor Neuron (SMN) Protein: Gene Identification via Genome-wide siRNA Screen;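 also: luminescence tracks full-length SMN protein made from the SMN2 reporter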
Conditions: HEK293T SMN2-luciferase reporter, siRNA knockdown, 72 h; actives lie on both sides
Procedure, shortened: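 HEK293T cells stably carrying an SMN2 promoter/splicing cassette–luciferase reporter were reverse-transfected with 1 pmol siRNA per well (druggable-genome library, 3 siRNAs per gene) and grown 72 h at 37 °C. Luminescence, normalized to negative-control siRNA and log10-transformed, was scored as MAD.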

**Q.** With GUAGGAUUGUUUAGUGUAATT against CACNA1D as the sequence, how does the median seed-adjusted z-score read?
**A.** inactive: -0.0856

**Q.** Which median seed-adjusted z-score does the source give for GUAUAUCUGAUGAAGGAUATT against DDX10 here?
**A.** inactive: -0.968

**Q.** For GGACAAGAUUUGACUUAAATT against WTIP, which median seed-adjusted z-score is on record?
**A.** inactive: 0.222

**Q.** Which median seed-adjusted z-score does the source give for GCUUCAUUGAUUACCCAAATT against PLAU here?
**A.** inactive: 0.0765

**Q.** With CCAGUUCAGUGCAAAGACATT against ZNF441 as the sequence, how does the median seed-adjusted z-score read?
**A.** inactive: 0.578

**Q.** With GGACUAUUCUUGAUAAGAATT against PTER as the sequence, how does the median seed-adjusted z-score read?
**A.** inactive: 0.75

**Q.** With GCUCCGCAAUUUCUACAGATT against HECW1 as the sequence, how does the median seed-adjusted z-score read?
**A.** inactive: -0.878

**Q.** Which median seed-adjusted z-score does the source give for CCGUAGCCGUGAAGAUGCUTT against FGFR3 here?
**A.** inactive: -0.133

**Q.** With GCAUGAAUCUUACUGUCCATT against ZFP2 as the sequence, how does the median seed-adjusted z-score read?
**A.** inactive: 0

**Q.** For GGUUAGACUUCUUAUGGAATT against ADCY2, which median seed-adjusted z-score is on record?
**A.** inactive: 0.173

**Q.** With CCGGAGAAGUUCAACAGCATT against DGKA as the sequence, how does the median seed-adjusted z-score read?
**A.** active: -1.36

**Q.** Which median seed-adjusted z-score does the source give for CCUCGGCUCCAGCAAAUCATT against CACNB1 here?
**A.** inactive: 0.225

**Q.** Which median seed-adjusted z-score does the source give for GCUCCUAGCUUACCUCAUATT against CLINT1 here?
**A.** inactive: 0.332

**Q.** Which median seed-adjusted z-score does the source give for GCAGCUCGGCUCAAACUUATT against NOTO here?
**A.** inactive: -0.193

**Q.** Which median seed-adjusted z-score does the source give for CAUUCGACAUAGAAGAGUUTT against ZNF551 here?
**A.** inactive: -0.171

**Q.** Which median seed-adjusted z-score does the source give for CAUCCACCUUGGACCACCATT against FCRLB here?
**A.** inactive: -0.00684

**Q.** Which median seed-adjusted z-score does the source give for CGAUGGACCUUGAAAUCUUTT against UEVLD here?
**A.** inactive: -0.0682

**Q.** For GGUGCAUCGUGGGAAAGAATT against RNF121, which median seed-adjusted z-score is on record?
**A.** inactive: -0.53

**Q.** With GAGACCUAAUGUUUCAUAUTT against PRKCI as the sequence, how does the median seed-adjusted z-score read?
**A.** inactive: 0.386

**Q.** For CACUAACUGGUGUUAGGUATT against RBL2, which median seed-adjusted z-score is on record?
**A.** inactive: 0.0211

**Q.** With GCUAUGAAGUGGACUGGAATT against SLC22A1 as the sequence, how does the median seed-adjusted z-score read?
**A.** inactive: -0.637

**Q.** With GGAUGGUAUAUGGACAAGATT against ALG9 as the sequence, how does the median seed-adjusted z-score read?
**A.** inactive: -0.267

**Q.** For GAAGUGUCUCCUGACCCUATT against GATA2, which median seed-adjusted z-score is on record?
**A.** inactive: 0.623

**Q.** For GCACGUCACUUACAAUGCUTT against KCNN2, which median seed-adjusted z-score is on record?
**A.** inactive: -0.0251

**Q.** With GGAGGUGUUUUGUUCGGAUTT against SV2C as the sequence, how does the median seed-adjusted z-score read?
**A.** inactive: 0.183

**Q.** Which median seed-adjusted z-score does the source give for CCUCCAUACCAACAGCAAATT against SNX11 here?
**A.** inactive: 0.00451

**Q.** With GGAUUACCUGUUACAAGAATT against PCLO as the sequence, how does the median seed-adjusted z-score read?
**A.** inactive: -0.734

**Q.** With CAAGGAUUGUGGUUAUGGATT against EDA2R as the sequence, how does the median seed-adjusted z-score read?
**A.** inactive: 0.424

**Q.** Which median seed-adjusted z-score does the source give for UGUGGGAUUUGUGCAAUAATT against GPR172B here?
**A.** inactive: 0.184

**Q.** Which median seed-adjusted z-score does the source give for GCUGAACAAGGGUUAUUGATT against ZFX here?
**A.** inactive: -0.581

**Q.** Which median seed-adjusted z-score does the source give for GUGCUAAUCUCAAUACCGATT against ZRANB1 here?
**A.** inactive: -0.347

**Q.** Which median seed-adjusted z-score does the source give for GGCGGUCGUUCAAAGUCAATT against ZNF275 here?
**A.** inactive: 0.315

**Q.** For GCAUAUACCGGACAAUCCATT against MTO1, which median seed-adjusted z-score is on record?
**A.** inactive: -0.0252

**Q.** With AUGAUAAGGUGGUACUGAATT against BMP4 as the sequence, how does the median seed-adjusted z-score read?
**A.** inactive: -0.612

**Q.** Which median seed-adjusted z-score does the source give for GUUUUAUACACUACAGUAATT against RCBTB2 here?
**A.** inactive: 0.235

**Q.** Which median seed-adjusted z-score does the source give for GGAUAAGGAAUAUCAUUCATT against DNAJC9 here?
**A.** inactive: 0.0545

**Q.** With AAUGGAACCUGUAAGUGUATT against GCN5L2 as the sequence, how does the median seed-adjusted z-score read?
**A.** inactive: 0.013

**Q.** Which median seed-adjusted z-score does the source give for GCUUGACUGAGGAAGCUCATT against ZNF648 here?
**A.** inactive: -0.000686

**Q.** With CAAGUAUGAUCAGCAAUGATT against ENG as the sequence, how does the median seed-adjusted z-score read?
**A.** inactive: -0.254

**Q.** With GAGUCACUUCUAAUAAACATT against FOLR2 as the sequence, how does the median seed-adjusted z-score read?
**A.** inactive: -0.0835

**Q.** For CCACGUCACCAGUACUAUATT against UBA1, which median seed-adjusted z-score is on record?
**A.** active: 1.34

**Q.** Which median seed-adjusted z-score does the source give for CCAAAAAGCGCAAACUGGATT against LMNA here?
**A.** inactive: -0.409

**Q.** For GAAGCUUCAUUCCAUUAUATT against ARSK, which median seed-adjusted z-score is on record?
**A.** inactive: -0.00229

**Q.** With GAAUCGCAAGGAUAUGAUATT against MSH2 as the sequence, how does the median seed-adjusted z-score read?
**A.** inactive: 0

**Q.** With AAUUAUACCCAGCACUGUATT against RNASE6 as the sequence, how does the median seed-adjusted z-score read?
**A.** inactive: 0.832

**Q.** With CAACAUUACCUGUCAUAUATT against CCNB1 as the sequence, how does the median seed-adjusted z-score read?
**A.** inactive: 0.163

**Q.** Which median seed-adjusted z-score does the source give for AGACCGUCUUCAUUACCUATT against HTR3C here?
**A.** inactive: -0.221

**Q.** For CCAACUCCUCUAUCCAAGATT against WFDC10A, which median seed-adjusted z-score is on record?
**A.** inactive: -0.439

**Q.** With GGACAUAUGAGUCAAAGGATT against CTSF as the sequence, how does the median seed-adjusted z-score read?
**A.** inactive: 0.161

**Q.** For GAAACCUGCUGAUCUACGATT against CREB3L2, which median seed-adjusted z-score is on record?
**A.** inactive: -0.192

**Q.** For GAUAUGACCGCGAAACCAATT against RPA4, which median seed-adjusted z-score is on record?
**A.** inactive: 0.132

**Q.** With GUAUCACCUGGGUAGGAAATT against DNAJC5G as the sequence, how does the median seed-adjusted z-score read?
**A.** inactive: 0.0656

**Q.** With CACAGAAAAGUUACCUUUUTT against PRDX6 as the sequence, how does the median seed-adjusted z-score read?
**A.** inactive: -0.0302

**Q.** Which median seed-adjusted z-score does the source give for GGAUGUCACAUGUACUUCATT against SDCCAG10 here?
**A.** inactive: -0.465

**Q.** Which median seed-adjusted z-score does the source give for ACACCUACAUGAUGACGCATT against EVX2 here?
**A.** inactive: 0.181

**Q.** With GAAGUACGUGAAACCAAAATT against RPN1 as the sequence, how does the median seed-adjusted z-score read?
**A.** inactive: -0.375

**Q.** Which median seed-adjusted z-score does the source give for ACAGUCUUCUUUUGAGAUATT against YAP1 here?
**A.** inactive: -0.247

**Q.** For CAAAGACCUUUGUCGGAUATT against ATP6V1A, which median seed-adjusted z-score is on record?
**A.** inactive: -0.0106

**Q.** Which median seed-adjusted z-score does the source give for AGUGGUAGAUUUAGAAGAATT against XBP1 here?
**A.** inactive: 0.387

**Q.** With GAGCUAUAAAUUGCACAAATT against PPA2 as the sequence, how does the median seed-adjusted z-score read?
**A.** inactive: -0.497

**Q.** Which median seed-adjusted z-score does the source give for GAAACAUCUGGUGCUAUUATT against KREMEN2 here?
**A.** inactive: -0.0883

**Q.** For AUCAAGUCUUCUUACAAGATT against VDAC2, which median seed-adjusted z-score is on record?
**A.** inactive: 0.648

**Q.** Which median seed-adjusted z-score does the source give for GGAAGAAAACAGUGCCUAUTT against CA9 here?
**A.** inactive: 0.0833

**Q.** Which median seed-adjusted z-score does the source give for GAUUUACCCUCCGACCAUATT against SLC1A3 here?
**A.** inactive: -0.421

**Q.** For GCUUUACUACAGUAUAAGATT against FKBP4, which median seed-adjusted z-score is on record?
**A.** inactive: 0.283

**Q.** With GAAUUGCUGAUAAACCUAUTT against SMNDC1 as the sequence, how does the median seed-adjusted z-score read?
**A.** active: -1.54

**Q.** Which median seed-adjusted z-score does the source give for CAGUUUAGGUCUCAAGGCATT against PPP2R5E here?
**A.** inactive: 0.421

**Q.** For GGCUAUUGGUCGUACCUUUTT against CPS1, which median seed-adjusted z-score is on record?
**A.** inactive: -0.247

— PubChem BioAssay AID1347426 (Functional Genomics Laboratory (NCATS/FGL), 2020)
